This experiment can be described thus: qHTS Assay to Find Inhibitors of Chronic Active B-Cell Receptor Signaling. The settings on record: ABC-DLBCL IkBa-CBG/CBR reporter, luminescence ratio (green luciferase fused to IkBa over red control in TMD8 lymphoma cells), 4 h. The text has this:
NIH Molecular Libraries Probe Production Network [MLPCN] NIH Chemical Genomics Center [NCGC] MLPCN Grant: 1 R03 DA031086-01A1 PI Name: Dr. R. Eric Davis NCGC Assay Overview: Diffuse large B-cell lymphoma (DLBCL) is the most common category of non-Hodgkin lymphoma, with ~20,000 new cases per year in the United States. DLBCL should be regarded as a collection of different neoplasms. Microarray gene expression analysis has defined two principal types of DLBCL, named for their similarity to normal B cell stages or activation states: a germinal center B-cell (GCB) type, and an activated B-cell (ABC) type. In ABC-DLBCL, a constitutive high-level activity of the NF-kappaB family of transcription factors has been observed (1) and NF-kappaB target genes are more highly expressed in ABC primary tumors than in GCB tumors. Functional studies have shown a constitutive high-level activity of the IkappaB (inhibitor of kappa-B) kinase (IKK) complex. […] Further analysis of DLBCL primary tumors for NF-kappaB target gene expression imply that although CARD11 is required for constitutive IKK activity in all ABC-DLBCL lines, mutations in CARD11 may be the root cause of IKK activation only in lines or tumors with such mutations. In other words, CARD11 mutations may explain NF-kappaB activation in only 10% of ABC-DLBCL cases. […] This process has been termed 'chronic active BCR signaling' (CABS). The goal of this screen is to find small-molecule inhibitors of the CABS pathway found in ABC-DLBCL lines using a cell-based assay that measures IkappaBalpa stability, which has already been extensively validated in the OCI-Ly3 line (PubChem AID:445; REF: 4). […] The assay uses green (CBG68) and red (CBR) emitting beetle luciferases [Chroma-GloTM developed by Promega Corp.] where the green luciferase is fused to IkappaBalpha and the red luciferase is present in its native state. Both luciferase genes are stably present in the TMD8 human ABC DLBCL cell line, but their expression is under the control of tetracycline-inducible promoters. Following the addition of doxycycline to induce expression of the luciferases, the green luminescence in control cultures rises only slowly because the CBG fusion partner IkappaBalpha is targeted by IKK activity for rapid degradation. In contrast, green luminescence rises rapidly in the presence of proteasome inhibitors or IKK inhibitors. The rise in red luminescence of CBR is not affected by proteasome or IKK inhibitors, and serves as normalization for cell number and nonspecific effects. Compounds were screened as a concentration-titration series that ranged from 46 uM to 3 nM.
NCGC Assay Protocol Summary: Cells were seeded in 1536-well plates at 5000 cells/4uL in IMDM medium containing 0.5% FBS, w/o phenol red, 1% penicillin/streptomycin. Then, 23 nL of compounds or DMSO were delivered to each well using a pin tool. One uL 20ng/ml doxycycline was then dispensed into white solid 1536-well plates and the plates were incubated at 37C/5% C02 in a cell incubator for 4 hrs. Then 4 uL luminescent substrate mix (in-house prepared: 150 mM Tris-Cl, pH 7.6, 3 mM MgCl2, 1% Triton X-100, 5 mM DTT, 0.2 mM CoA, 0.15 mM ATP, 5 mM D-luciferin, final concentrations) was added to each well. The plate was incubated at r.t. for 10-15 min. The plates were measured on a ViewLux plate reader for green luminescence (540/20 nm filter) and red luminescence (618/8 nm filter). The green and red luminescent signals were corrected for red and green luminescence filter overlap using previously determined filter calibration constants (determined using the procedure outlined in the Promega Technical Manual; REF 4). The %Activity was determined from the ratio of corrected green/red luminescent values. MG132 were used as control. […] Red luminescent %Activity was normalized to the difference between red luminesence in basal cells (0%Activity) and zero luminescence (-100% Activity). […]
(In general: In qHTS, concentration-response curves come from the screen itself.)

Setting [1] is: measured here: CBR red luminescence, cell number.
[2] abbreviates: measured here: IkBa-CBG green luminescence.

AC50 data for 41 compounds are collected here from PubChem BioAssay AID493014 (National Center for Advancing Translational Sciences (NCATS), 2011).

The list shows a part of the results. The main result of the screen is listed elsewhere. These columns were measured beside it and carry no call. Compounds called inactive in the main read-out are mostly missing here. Potencies come from curve fits of mixed quality, noted in brackets.

One may read the AC50 as the midpoint of the concentration-response curve, whichever way the signal moves.

As to `CCOCCCNC(=O)C1CCCN(S(=O)(=O)CC)C1` (stereo not drawn), under setting [1], the AC50 is 6.51 µM [falling, single point].

Regarding `CCOC(=O)c1[nH]c2ccccc2c1CCCN1C(=O)c2ccccc2C1=O`, under setting [1], the AC50 was 15.8 µM [falling, single point].

As for `O=C(NC(=S)NNC(=O)c1ccccc1O)c1cccs1`, under setting [1], the AC50 was 7.08 µM [falling, partial curve].

Regarding `CN(CC1CCCO1)S(=O)(=O)c1ccc(C(=O)Nc2nnc(-c3ccccc3)o2)cc1` (stereo not drawn), the AC50 under setting [1] was 35.5 µM [falling, single point].

In the case of `CC(C)CC(=O)Nc1ccc(C(=O)COC(=O)Cc2n[nH]c(=O)c3ccccc23)cc1`, the AC50 under setting [1] is 16.4 µM [rising, single point].

As for `C=CC[C@@H](CC(=O)N(CCO)Cc1ccccc1)C(=O)N[C@H](COC(=O)[C@@H](CC=C)Cc1ccc(F)cc1)c1ccccc1`, under setting [1], the AC50 was 29.1 µM [falling, single point].

For the compound `CCOC(=O)/C(C#N)=C/C1=C(N2CCCC2)CC(C)(CC)OC1` (stereo not drawn), the AC50 under setting [1] was 3.66 µM [falling, single point].

In the case of `O=C(NCCCCc1ccccc1)c1ccccc1`, the AC50 under setting [1] was 12.6 µM [falling, partial curve].

In the case of `Cc1cccc(NC(=S)NNC(=O)c2ccco2)c1`, under setting [1], the AC50 is 18.4 µM [falling, single point].

Consider `Cc1ccc(C)c(NC(=O)c2cc(-c3cc(C)ccc3O)n[nH]2)c1`, for which the AC50 under setting [1] was 10 µM [falling, partial curve].

Turning to `CCc1nc(NCCC(C)C)c2nnn(Cc3ccccc3)c2n1`, the concentration at half-maximal activity (AC50) under setting [1] is 7.94 µM [rising, partial curve, poor fit].

In the case of `COc1cc2[nH]c(=S)n(N(C(C)=O)C(C)=O)c(=O)c2cc1OC`, the AC50 under setting [1] is 29.1 µM [rising, single point].

Turning to `CC(C)c1nc2c(c(=O)c3ccccc3n2C)c(=O)n1-c1ccc(F)cc1`, under setting [1], the AC50 was 10.3 µM [falling, partial curve, poor fit].

With `Cc1cc(C)c(OCCN2C(=O)NC(C)(C)C2=O)c(Cl)c1`, the AC50 under setting [1] was 18.4 µM [rising, single point].

Consider `Nc1ccc(OC(=O)Nc2ccc(O)cc2)cc1`, for which the AC50 under setting [1] is 35.5 µM [rising, single point] and the AC50 under setting [2] was 25.1 µM [falling, single point].

As for `O=C1NC(=O)C(Cc2ccccc2)(c2cccnc2)N1` (stereo not drawn), under setting [1], the AC50 was 3.98 µM [falling, full curve].

On to `CNS(=O)(=O)c1ccc(NC(=O)c2ccccn2)cc1`, for which the AC50 under setting [1] is 16.4 µM [falling, single point].

`COc1ccccc1/C=C/C(=O)N1CCN(S(=O)(=O)c2cccs2)CC1`: the AC50 under setting [1] was 4.61 µM [rising, single point].

For the compound `CC1=C(C(=O)Nc2ccccc2)C(c2ccncc2)C(C#N)=C(SCC(=O)NC(C)C)N1` (stereo not drawn), under setting [1], the AC50 was 4.11 µM [rising, full curve].

With `COc1ccc(C(=O)Nc2ccc(SC(F)F)cc2)cc1`, under setting [1], the AC50 is 0.461 µM [rising, full curve].

For the compound `O=C(O)C(=O)/C(=C\c1cccc2ccccc12)c1ccc2ccccc2n1`, the AC50 under setting [1] was 29.1 µM [rising, partial curve, poor fit].

With `COc1ccc(-c2csc(Nc3ncccc3C)n2)cc1`, the AC50 under setting [1] is 18.4 µM [falling, partial curve].

In the case of `Cn1c2ccc(F)cc2c2ncn(CCCN(CCO)CCO)c(=O)c21`, the AC50 under setting [1] was 29.1 µM [falling, single point].

For the compound `O=C1C(=O)N(CCN2CCOCC2)C(c2ccc(Cl)cc2)/C1=C(/O)c1ccc(S(=O)(=O)N2CCOCC2)cc1` (stereo not drawn), the half-maximal activity concentration (AC50) under setting [1] was 3.16 µM [rising, single point].

`Cc1cc(NC(=O)c2ccc(Cl)cc2)n(-c2ccccc2)n1`: the AC50 under setting [1] was 5.62 µM [falling, single point].

Consider `Cc1nnc2sc(-c3ccc(N(C)C)cc3)nn2c1=O`, for which the AC50 under setting [1] was 11.2 µM [falling, single point].

For the compound `CCc1ccc(NC(=O)c2cc(C)on2)cc1`, the AC50 under setting [1] is 22.4 µM [falling, single point].

Regarding `Cc1cccc(NC(=O)C(=O)NCc2ccccn2)c1`, under setting [1], the AC50 was 6.31 µM [falling, partial curve].

`O=C(Nc1ccccc1O)c1ccc(C(=O)c2ccccc2)o1`: the AC50 under setting [1] was 11.2 µM [falling, partial curve].

With `CCCCOc1ccc(C(=O)Nc2cc(C)c(OCC(=O)N3CCOCC3)c(C)c2)cc1`, the AC50 under setting [1] was 16.4 µM [falling, partial curve, poor fit].

Turning to `c1ccc(N2CCN(Cc3ccnc4ccccc34)CC2)cc1`, the AC50 reads like this: under setting [1], 1.46 µM [rising, partial curve, poor fit]; under setting [2], 29.1 µM [falling, single point].

As to `COc1ccc(-c2nc(SCc3ccccc3)n(S(C)(=O)=O)n2)cc1`, under setting [1], the AC50 was 14.1 µM [rising, partial curve].

With `O=C(NCc1ccco1)c1cc(Cl)nc(Cl)c1`, the AC50 under setting [1] is 0.708 µM [falling, full curve, poor fit].

In the case of `COc1ccc2nc(NC(=O)C3CCN(C(=O)c4ccc(F)cc4)CC3)sc2c1`, under setting [1], the AC50 was 14.1 µM [falling, single point].

Take `COc1ccc(NC(=O)CSc2nnc3ccc(-c4ccccn4)nn23)cc1`: the AC50 under setting [1] is 23.1 µM [falling, single point].

Regarding `C[C@H]1CN([C@@H](C)CO)C(=O)Cc2cc(NC(=O)CCC(F)(F)F)ccc2O[C@H]1CN(C)S(=O)(=O)c1ccc(Cl)cc1`, the AC50 under setting [1] is 9.2 µM [rising, partial curve].

`Cc1cc(S(=O)(=O)Nc2ccc3c(c2)n(C)c(=O)n3C)ccc1F`: under setting [1], the AC50 is 15.8 µM [rising, partial curve].

As for `COCCNC(=O)c1c(N)n(-c2cccc(C)c2)c2nc3ccccc3nc12`, the AC50 under setting [1] is 35.5 µM [falling, single point].

On to `O=C(CSc1ncnc2ccccc12)c1ccc2c(c1)OCCO2`, for which the AC50 under setting [1] is 2.59 µM [falling, full curve, poor fit].

Turning to `CC(C)(C)C1COc2ccccc2N1C(=O)c1ccccc1Cl` (stereo not drawn), the AC50 under setting [1] is 35.5 µM [rising, single point].

As for `OC1O[C@H](c2ccc3c(c2)OCO3)[C@H]2CO[C@H](c3ccc4c(c3)OCO4)[C@@H]12` (stereo partly drawn), the AC50 under setting [1] was 4.47 µM [falling, partial curve, poor fit].
